This is an account of results in the supplement of paper PMC5949888.

Most values lie at the floor of the assay. Slopes are relative: functional sequences can read slightly below zero.

For this series, the system named is Saccharomyces cerevisiae PS128 hsf1 delta, HSF1(1-493) fusion. In words: growth estimate (transactivation domain function in HSF1 fusion, heat-shock survival) (a.u. (slope of normalised read count over time)); higher = stronger growth at 37°C, i.e. more transactivation activity. Conditions: library: random library.
For LKLPSHSVVRKLLMLADSEG, the growth estimate is under -0.25.
Next, LLRRNYDGPMCRLRSAVDQG: under -0.25; LGVDVHTKVGLSRESGRLMR: under -0.25.
With WQATRT, the growth estimate is under -0.25.
For QPIESKRVASVRCVWESIRR the value was under -0.25; for DYGYSG, under -0.25.
Next, SGGVS: under -0.25; YLSGRTSTGLVFVASGLAES: under -0.25; IIGRVVLAMQGKLRIAGLFV: under -0.25.
For AGLTLPGLDCTVQRSDRDQV the value was under -0.25.
Regarding LLAWQVIAM, the growth estimate was under -0.25.
As to ELVGGGWLRRASSKLAGSGY, the growth estimate is under -0.25.
Next, STYLM: under -0.25; EVKEGSVSRECRTGRVPNKK: under -0.25; CRD: under -0.25.
For WVDRAM the value was under -0.25; for KSVLRLGDGH, under -0.25.
Next, YPLASGRAVTIIKGFGEPYR: under -0.25; ALDR: under -0.25.
Turning to VQARIIPSTLRTARSFGTWL, the growth estimate was under -0.25.
For VMSSRGEQ the value was under -0.25; for LLATSLVSLIVPTSATQNAW, under -0.25; for ASQVRDV, under -0.25.
For VPRGSHSTNQGGPKKAGGNG, the growth estimate was under -0.25.
Next, SFFKGRRLKVPLVIRSWLLT: under -0.25.
Next, VENQW: under -0.25; RKRATGSRNNWA: under -0.25; LWQCPDWIQKS: under -0.25.
In the case of PGKANDFRAAGTQITVGRI, the growth estimate is under -0.25.
For ASKIGADGMIL the value was under -0.25; for RCGRRS, under -0.25; for LLSIGSPITRREWSEGGRGH, under -0.25.
For FRLQEAMCLLHPR the value was -0.192.
Next, LPTKQSSAGARGGD: under -0.25; TCHQVLADNTAEAFCIQLVA: under -0.25; YTFRCSSV: under -0.25.
With DGERI, the growth estimate is under -0.25.
LNAQKVLNLALPP: the growth estimate was under -0.25.
Consider IVGSFSGSTRHSNTRAFRQD, for which the growth estimate was under -0.25.
Take SPDENRDSAQAHRNGPRFRM: the growth estimate was under -0.25.
For SKATPW the value was under -0.25; for PTQS, under -0.25.
Next, VSH: under -0.253; SRHFLSKLLTGGLTYGGHCA: under -0.25; IVVAR: under -0.25.
Regarding RAKAIVTRPCFKPH, the growth estimate was under -0.25.
Next, GGSNYGLLHPVV: under -0.25; VRLVFGALGKRCHNNLTRYK: under -0.25.
For NLHDRCQVRAGSR the value was under -0.25; for VCG, under -0.25.
For RVWGVPWCGTEHCARRSSLT the value was under -0.25; for GAELRMSSMGRDVALGSNWV, under -0.25; for LGTRRINRSRRTLSAPSDES, under -0.25.
Regarding QQDSAHRAICSKRISVEFCG, the growth estimate is under -0.25.
As to MHTGKC, the growth estimate was under -0.25.
Next, YGLVLVAPTV: under -0.25.
For LQGVGRTWVLLRQHWWYPRE the value was under -0.25; for YPTVPGTCWGCRVELLVSRR, under -0.25; for VFRAIGLYRCCTREATVCSK, under -0.25.
Next, VSSDL: under -0.25; LASPGPAV: under -0.25.
For NAGSKVCSSQIPWCRPSIAG, the growth estimate is under -0.25.
On to NWECNSTWWYLGRNSFPAGN, for which the growth estimate was under -0.25.
For HRLSTESPNREF the value was under -0.25.
Next, VGASGLQAGRVLLKRSAP: under -0.25; TTGSALGQRQIAQIMRFRSF: under -0.25; RSQESSS: under -0.25.
Turning to RNLR, the growth estimate is under -0.25.
For RTNTISPGSRRRISYIQYPM the value was under -0.25.
Next, RILCVHPSSIMMSNCVRRRH: under -0.25; LSALRSLTSGVFVQRAALAQ: under -0.25; ASPFVC: under -0.25.
For FIFWRLPGHRKGRPGGALNL the value was under -0.25; for PICSRSSSRWRTGSLTSVEY, under -0.25; for RTKVEVVGRFHERYSCTSRV, under -0.25.
Take FAKLQGWHRVCLRVVARGFA: the growth estimate was under -0.25.
Consider SRVAQRSQTYFHPSC, for which the growth estimate was under -0.25.
For TVAD the value was under -0.25; for QMSTQRQMVGPRCFLYAGSD, under -0.25.
Next, KTWVRTVDSMNY: under -0.25.
